# Results published in article PMC4836198.
# Amino acid sequences for entries named in this document (tags omitted). A change or cut given only in a name is not applied to a line headed by its entry.
# UniProt P08111: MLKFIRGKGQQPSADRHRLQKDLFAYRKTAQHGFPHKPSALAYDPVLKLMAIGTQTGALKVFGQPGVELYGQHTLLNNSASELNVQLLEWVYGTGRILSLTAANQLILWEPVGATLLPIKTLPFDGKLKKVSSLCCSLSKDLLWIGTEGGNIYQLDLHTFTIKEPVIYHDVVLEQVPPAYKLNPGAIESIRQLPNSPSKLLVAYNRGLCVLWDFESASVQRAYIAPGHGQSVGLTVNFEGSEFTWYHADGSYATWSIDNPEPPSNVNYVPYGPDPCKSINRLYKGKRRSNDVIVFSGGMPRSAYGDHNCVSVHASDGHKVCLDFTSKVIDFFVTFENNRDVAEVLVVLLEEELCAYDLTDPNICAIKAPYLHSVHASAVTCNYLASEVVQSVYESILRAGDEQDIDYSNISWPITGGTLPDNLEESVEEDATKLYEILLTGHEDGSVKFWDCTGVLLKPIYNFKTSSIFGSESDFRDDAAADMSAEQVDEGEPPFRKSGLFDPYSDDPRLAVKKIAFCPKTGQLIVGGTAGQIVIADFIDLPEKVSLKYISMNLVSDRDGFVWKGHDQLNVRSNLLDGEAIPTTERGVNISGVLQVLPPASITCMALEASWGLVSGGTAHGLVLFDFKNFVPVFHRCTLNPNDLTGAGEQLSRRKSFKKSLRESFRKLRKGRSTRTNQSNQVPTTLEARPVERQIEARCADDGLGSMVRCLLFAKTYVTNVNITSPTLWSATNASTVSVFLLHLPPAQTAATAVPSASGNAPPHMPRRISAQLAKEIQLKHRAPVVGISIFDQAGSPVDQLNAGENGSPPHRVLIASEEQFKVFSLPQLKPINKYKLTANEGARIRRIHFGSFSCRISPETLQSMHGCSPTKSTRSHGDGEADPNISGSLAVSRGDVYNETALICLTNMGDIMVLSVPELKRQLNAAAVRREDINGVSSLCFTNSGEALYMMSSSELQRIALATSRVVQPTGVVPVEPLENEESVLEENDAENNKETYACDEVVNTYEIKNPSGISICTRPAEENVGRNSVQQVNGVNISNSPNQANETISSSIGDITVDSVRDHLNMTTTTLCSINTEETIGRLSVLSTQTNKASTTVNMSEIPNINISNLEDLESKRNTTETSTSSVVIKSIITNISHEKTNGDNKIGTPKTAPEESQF
# Results are given in words; binding and its absence hold for the method and conditions named. In cells and extracts the contact can be indirect. A yes stands for co-enrichment or nearness to the bait. Other partners may have been found. Sequences can lack the tags named with a protein.
# Molecular target: T1, Tetra-Tag aPKC full-length (TTaPKC FL) (Drosophila) (UniProt A1Z9X0)
# T1 sequence: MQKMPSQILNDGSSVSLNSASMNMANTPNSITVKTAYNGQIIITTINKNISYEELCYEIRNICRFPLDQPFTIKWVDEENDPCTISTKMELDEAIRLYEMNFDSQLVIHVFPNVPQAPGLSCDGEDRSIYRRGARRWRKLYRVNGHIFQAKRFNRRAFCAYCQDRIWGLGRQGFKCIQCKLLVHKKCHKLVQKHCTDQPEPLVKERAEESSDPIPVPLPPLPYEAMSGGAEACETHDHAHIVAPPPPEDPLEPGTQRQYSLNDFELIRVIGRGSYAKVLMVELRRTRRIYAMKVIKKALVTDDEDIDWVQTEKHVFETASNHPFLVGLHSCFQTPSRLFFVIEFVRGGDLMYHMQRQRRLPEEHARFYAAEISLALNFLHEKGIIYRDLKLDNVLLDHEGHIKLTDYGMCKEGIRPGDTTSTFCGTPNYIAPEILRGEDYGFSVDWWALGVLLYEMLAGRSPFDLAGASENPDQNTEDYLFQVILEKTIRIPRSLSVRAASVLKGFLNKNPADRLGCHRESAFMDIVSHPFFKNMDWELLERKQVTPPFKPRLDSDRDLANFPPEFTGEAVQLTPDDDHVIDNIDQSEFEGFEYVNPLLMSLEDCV
# Assay: affinity purification with mass spectrometry; Tandem Affinity Purification of TTaPKC FL from extracts of embryos overexpressing it (69B-Gal4); control 69B-Gal4 extract; bands identified by mass spectrometry
row,binding,Substance
1,binds,"Lgl, endogenous (from UniProt P08111)"
2,binds,"Nuclear Fallout (Nuf), endogenous (Drosophila (endogenous in embryos))"
3,binds,"Par-1, endogenous (Drosophila (endogenous in embryos))"
